No constants are given. Whether binding was seen depends on the method and setting. Binding seen in cells or lysates may run through a third protein. Some entries that bind do so weakly or less than the wild type.
Molecular target: NLRP3 full-length-mCitrine (in iMos) (human) (UniProt Q96P20)
Assay: co-IP; iMos stably expressing NLRP3-mCitrine variants; IP in GFP-trap plates, 2.5 h at 4 °C shaking; endogenous NEK7 detected by immunoblot; for activated co-IP cells primed with LPS, CRID3 and YVAD added, nigericin 20 min

The chains behind the UniProt entries cited, without tags or fusion partners.
UniProt Q96P20: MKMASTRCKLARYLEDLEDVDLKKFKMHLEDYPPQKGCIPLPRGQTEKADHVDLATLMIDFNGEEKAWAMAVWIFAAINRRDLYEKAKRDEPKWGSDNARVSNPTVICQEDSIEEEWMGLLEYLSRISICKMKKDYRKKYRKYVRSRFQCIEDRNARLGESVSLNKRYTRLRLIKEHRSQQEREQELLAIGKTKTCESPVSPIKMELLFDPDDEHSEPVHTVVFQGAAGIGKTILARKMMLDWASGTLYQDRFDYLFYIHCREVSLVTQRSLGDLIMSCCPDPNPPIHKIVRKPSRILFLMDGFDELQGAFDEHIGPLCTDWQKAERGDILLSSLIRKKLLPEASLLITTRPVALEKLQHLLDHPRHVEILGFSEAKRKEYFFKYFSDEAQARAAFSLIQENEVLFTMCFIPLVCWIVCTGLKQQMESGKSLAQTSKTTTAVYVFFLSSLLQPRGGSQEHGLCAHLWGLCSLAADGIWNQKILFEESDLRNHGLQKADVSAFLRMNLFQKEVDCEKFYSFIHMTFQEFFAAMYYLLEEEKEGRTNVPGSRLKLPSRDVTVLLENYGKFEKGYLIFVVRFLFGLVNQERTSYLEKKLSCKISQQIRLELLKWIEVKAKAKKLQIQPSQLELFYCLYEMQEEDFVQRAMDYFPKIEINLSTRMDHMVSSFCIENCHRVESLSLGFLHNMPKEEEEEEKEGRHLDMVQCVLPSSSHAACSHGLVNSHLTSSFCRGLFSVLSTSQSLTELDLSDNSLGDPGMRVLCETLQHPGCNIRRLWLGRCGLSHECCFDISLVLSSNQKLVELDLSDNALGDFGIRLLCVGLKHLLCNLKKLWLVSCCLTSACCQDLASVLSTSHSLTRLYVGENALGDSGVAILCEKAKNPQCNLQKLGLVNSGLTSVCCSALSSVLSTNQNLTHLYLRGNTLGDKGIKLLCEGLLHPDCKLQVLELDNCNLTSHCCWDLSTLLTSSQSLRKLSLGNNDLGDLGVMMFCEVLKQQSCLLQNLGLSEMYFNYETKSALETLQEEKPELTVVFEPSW
UniProt Q9ES74: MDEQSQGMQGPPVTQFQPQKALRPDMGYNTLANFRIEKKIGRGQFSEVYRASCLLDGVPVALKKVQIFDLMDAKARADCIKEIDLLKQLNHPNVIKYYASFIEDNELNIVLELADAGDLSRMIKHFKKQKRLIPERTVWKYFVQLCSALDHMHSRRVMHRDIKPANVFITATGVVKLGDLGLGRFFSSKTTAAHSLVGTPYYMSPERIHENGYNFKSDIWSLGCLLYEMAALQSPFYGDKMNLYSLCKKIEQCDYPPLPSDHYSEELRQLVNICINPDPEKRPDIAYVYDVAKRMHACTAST

“NEK7, endogenous in mouse immortalized macrophages (from UniProt Q9ES74 1-302)” was tested, and the binding was “binds”.
